The assay in a line: qHTS Assay to Find Inhibitors of Chronic Active B-Cell Receptor Signaling. The settings on record: ABC-DLBCL IkBa-CBG/CBR reporter, luminescence ratio (green luciferase fused to IkBa over red control in TMD8 lymphoma cells), 4 h. Summed up: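 TMD8 ABC-DLBCL cells carrying doxycycline-inducible green luciferase fused to IkappaBalpha plus unfused red luciferase were exposed to compounds (up to 46 uM) for 4 hrs at 37C. Activity came from the overlap-corrected green/red luminescence ratio.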

[1] abbreviates: measured here: CBR red luminescence, cell number.
Where [2] appears, read: measured here: IkBa-CBG green luminescence.

The structures appear in SMILES notation. The list shows a part of the results. The main result of the screen is listed elsewhere. These columns were measured beside it and carry no call. Compounds called inactive in the main read-out are mostly missing here. Potencies come from curve fits of mixed quality, noted in brackets.

Regarding `O=C(/C=C\c1ccccc1[N+](=O)[O-])Nc1ccccc1`, under setting [1], the AC50 (as a rule, the concentration at which the activity in the assay is half-maximal) is 8.91 µM [falling, partial curve, poor fit].
On to `COc1ccccc1-n1c(C)nc(=O)c(-c2ccccc2)c1C`, for which, under setting [1], the AC50 was 4.61 µM [rising, full curve, poor fit].
As to `O=Nc1c(-c2ccccc2)[nH]n(-c2ccccc2)c1=O`, the AC50 under setting [1] was 11.2 µM [falling, partial curve].
The same measure, in the same setting: for `CCCC(=O)Nc1ccc(-c2nc3cc(C)ccc3o2)cc1` the value was 7.31 µM [falling, partial curve, poor fit].
For the molecule `Cc1ccc2c(c1)sc(C)[n+]2CCCS(=O)(=O)[O-]`, under setting [1], the half-maximal activity concentration (AC50) is 0.708 µM [rising, full curve, poor fit].
`CC(C)c1nn2c(=O)cc(COc3cccc(NC(=O)c4ccco4)c3)nc2s1`: the AC50 under setting [1] was 0.631 µM [falling, full curve].
With `CCOC(=O)N/N=C/c1cn(Cc2ccccc2Cl)c2ccccc12`, the concentration at half-maximal activity (AC50) under setting [1] was 29.1 µM [falling, single point].
Consider `CCC(C)NC(=O)c1cnn2c(C)c3c(nc12)CCCC3` (stereo not given), for which the half-maximal activity concentration (AC50) under setting [1] is 5.62 µM [rising, single point].
Still for that read-out and setting: the result for `CNc1ccc(Br)cc(C(=O)/C=C/c2ccc(Cl)cc2Cl)c1=O` reads 11.2 µM [falling, single point]; that for `CC(C)C(=O)Nc1nnc(COc2ccc(Cl)cc2)s1`, 15.8 µM [rising, partial curve, poor fit]; that for `COC(=O)C1=C(C)N(Cc2ccccc2)C(=NCCc2cccnc2)N[C@H]1c1ccccc1`, 35.5 µM [falling, single point].
Same read-out and setting: for `CCOC(=O)c1cc(-c2ccccc2)n(CC(=O)Nc2cc(OC)cc(OC)c2)c1C` the value was 9.2 µM [rising, partial curve]; for `CCC(=O)N(CCC(c1ccco1)C(C)C)Cc1ccccc1` (stereo not given), 22.4 µM [falling, single point].
For `CSc1ccccc1Nc1ncnc(N)n1`, the AC50 under setting [1] is 17.8 µM [falling, single point].
On the same count and under the same terms, the result for `CCN(CC)S(=O)(=O)c1ccc(-c2nnc(SCC(=O)Nc3ccc(OC)cc3)o2)cc1` reads 20.6 µM [rising, partial curve].
As for `Cc1ccc(S(=O)(=O)NCc2ccc(C(=O)NC3CCC(O)CC3)cc2)cc1C` (stereo not given), the AC50 under setting [1] was 29.1 µM [rising, single point].
Consider `COc1ccc(-c2nn(Cc3ccccc3)cc2C(=O)N2CCN(c3ccccn3)CC2)cc1OC`, for which the concentration at half-maximal activity (AC50) under setting [1] was 6.51 µM [rising, single point].
On to `CC1CCN(c2ccc(/C=N\Nc3nncn3N)cc2[N+](=O)[O-])CC1`, for which the concentration at half-maximal activity (AC50) under setting [1] is 6.51 µM [rising, single point].
Take `CCCc1cc(NCCCn2ccnc2)n2nc(C)c(-c3ccccc3)c2n1`: under setting [1], the AC50 is 2.82 µM [rising, single point].
With `O=C(COc1ccc(NC(=O)c2cccs2)cc1)c1ccc(F)cc1`, the half-maximal activity concentration (AC50) under setting [1] is 14.1 µM [rising, single point].
With `COC(=O)C/C=N/N=C1/NC(=O)/C(=C/C(=O)O)S1`, under setting [1], the AC50 was 3.16 µM [falling, full curve].
Turning to `CC(=O)n1nc(-c2ccncc2)nc1SCC(=O)Nc1cccc(Cl)c1`, under setting [1], the AC50 was 8.91 µM [falling, partial curve].
On to `NC(=O)c1ccc(C(F)(F)F)n(Cc2ccc(F)c(F)c2)c1=O`, for which the concentration at half-maximal activity (AC50) under setting [1] was 12.6 µM [falling, partial curve, poor fit].
As for `NNC(=O)c1ccc(COc2ccc([N+](=O)[O-])cc2)o1`, the AC50 under setting [1] was 0.112 µM [falling, full curve, poor fit].
With `Cc1ccc(-c2n[nH]c(=O)c3ccccc23)cc1S(=O)(=O)Nc1ccccc1`, the concentration at half-maximal activity (AC50) under setting [1] is 1.46 µM [falling, partial curve, poor fit].
Consider `Cc1ccc(S(=O)(=O)NC(=O)Nc2ccc(C)cc2C)cc1`, for which the AC50 under setting [1] was 14.1 µM [rising, partial curve, poor fit].
The same measure, in the same setting: for `COc1ccc(OC)c(NC(=O)c2cccc(NC(=O)c3ccccc3)c2)c1` the value was 12.6 µM [falling, partial curve, poor fit]; for `O=C(Nc1c(-c2ccccc2)nc2c(Br)cc(Br)cn12)c1ccco1`, 35.5 µM [rising, single point]; for `CCn1c(=O)c(C(=O)NNC(=O)c2ccccc2Cl)c(O)c2ccccc21`, 4.47 µM [falling, partial curve, poor fit].
As for `COc1ccc(CNC(=O)C2CCC(CNC(=O)[C@@H]3Cc4ccccc4CN3)CC2)cc1` (stereo not given in full), the half-maximal activity concentration (AC50) under setting [1] was 6.31 µM [falling, partial curve].
Consider `COc1ccc(C(=O)NC(=S)Nc2ccc3c4c(cccc24)CC3)cc1OC`, for which the concentration at half-maximal activity (AC50) under setting [1] is 2.06 µM [rising, full curve].
The same measure, in the same setting: the result for `C/C(=N\NC(=O)c1cccc(C)c1O)c1ccc(NC(=O)Cc2ccccc2)cc1` reads 22.4 µM [falling, single point]; that for `Cc1noc(C)c1NC(=O)Nc1cccc2c1O[C@H](CN(C)C(=O)Nc1ccc(C(F)(F)F)cc1)[C@@H](C)CN([C@H](C)CO)C2=O`, 14.6 µM [rising, partial curve, poor fit]; that for `COc1nc(SCC(=O)Nc2ccccc2Cl)nc(N(C)C)n1`, 35.5 µM [falling, partial curve, poor fit].
Take `COc1ccc2c(c1)oc(=O)c1cc(OC)ccc12`: the AC50 under setting [1] is 3.16 µM [rising, single point].
Regarding `O=c1c(=Nc2ccccc2O)c(=O)c2ccccc12`, under setting [1], the AC50 is 12.6 µM [falling, partial curve].
`CC(=O)n1cc(/C=N/NC(=O)c2ccccc2O)c2ccccc21`: under setting [1], the AC50 was 6.31 µM [falling, partial curve].
For the molecule `Cc1ccccc1C(=O)NC(=S)Nc1ccc(S(=O)(=O)N(C)c2ccccc2)cc1`, under setting [1], the AC50 is 3.66 µM [falling, full curve].
`COc1ccccc1/C=C1\SC(=S)N(CC(=O)Nc2nnc(C)s2)C1=O`: the AC50 under setting [1] was 3.55 µM [rising, single point].
Consider `CCN(CC)c1nc(N)c2c(N)n(-c3ccccc3C)c(=S)c(C#N)c2c1C#N`, for which, under setting [1], the concentration at half-maximal activity (AC50) was 9.2 µM [falling, partial curve].
Consider `COc1ccc(C(=O)/C=C/c2ccc(OC)c(O)c2)c(F)c1`, for which the half-maximal activity concentration (AC50) under setting [1] is 11.6 µM [falling, partial curve, poor fit].
`CC1CCN(C(=S)NC(=O)c2ccco2)CC1`: the AC50 under setting [2] is 22.4 µM [falling, partial curve, poor fit].
As for `Fc1ccc(C2CCNCC2COc2ccc3c(c2)OCO3)cc1` (stereo not given), under setting [1], the AC50 is 35.5 µM [falling, single point].
Consider `COc1ccc(-c2nc3ccccn3c2Cl)cc1`, for which, under setting [1], the AC50 is 6.31 µM [rising, full curve, poor fit].
For the molecule `CC1=C(C(=O)O)N2C(=O)C(NC(=O)c3ccc(F)cc3)C2SC1` (stereo not given), the concentration at half-maximal activity (AC50) under setting [1] was 25.9 µM [falling, single point].
In the case of `COc1ccc(OC)c(/C=N/NC(=O)c2cc3c(OC)cccc3[nH]2)c1`, the AC50 under setting [1] is 3.98 µM [falling, full curve].
Regarding `COc1ccccc1-c1cc(-c2cc(Cl)ccc2O)n[nH]1`, under setting [1], the AC50 was 20 µM [falling, single point].
As for `CC(/C=N/NC(=O)c1ccccc1F)=C\c1ccccc1`, the AC50 under setting [1] was 20 µM [falling, partial curve, poor fit].
Still for that read-out and setting: for `O=C1C=CC(=O)N1N(c1ccccc1)c1ccccc1` the value was 8.2 µM [falling, partial curve, poor fit]; for `CCC(=O)Nc1sc(C(=O)N2CCCCC2)c(C)c1C#N`, 35.5 µM [rising, single point]; for `CC(C)=CC(=O)OCC(=O)NC(=O)NC(C)(C)C`, 1.03 µM [falling, full curve, poor fit].
For `Cc1ccc(C(=O)NCCn2c(N)c(C#N)c3nc4ccccc4nc32)cc1`, under setting [1], the half-maximal activity concentration (AC50) was 1.64 µM [rising, partial curve, poor fit].
For `COc1ccccc1CCNC(=O)c1ccc2nc[nH]c2c1`, the concentration at half-maximal activity (AC50) under setting [1] is 17.8 µM [falling, partial curve, poor fit].
`Cc1onc(-c2ccccc2)c1C(=O)N/N=C/c1cc(Br)c(O)c(Br)c1`: under setting [1], the AC50 was 15.8 µM [rising, single point].
With `Fc1ccc(NC(=S)N2CCOCC2)c(F)c1`, the AC50 under setting [1] was 0.794 µM [rising, full curve, poor fit].
Still for that read-out and setting: for `COc1ccccc1-c1c(C)nn2c(N)c(-c3ccccc3)cnc12` the value was 35.5 µM [falling, single point]; for `O=C(Nc1nnc(C2=COCCO2)o1)c1cccc(F)c1`, 4.47 µM [falling, partial curve].
The same measure, in the same setting: for `O=C(N/N=C/C(Cl)=C\c1ccccc1)c1ccco1` the value was 22.4 µM [falling, single point].
With `N#Cc1c(SCC(=O)Nc2nc3ccccc3s2)sc2c(O)cc(=O)[nH]c12`, the concentration at half-maximal activity (AC50) under setting [1] is 18.4 µM [falling, partial curve].
Take `O=C(NCCC1=CCCCC1)c1ccc2c(c1)ncn2-c1cccc(Cl)c1`: under setting [1], the AC50 was 3.55 µM [rising, full curve, poor fit].
Consider `COc1cc(-c2nc3cnccn3c2Nc2ccccc2)ccc1O`, for which the concentration at half-maximal activity (AC50) under setting [1] is 23.1 µM [falling, single point].
Take `CCOc1ccc2[nH]cc(C(=O)NCCCN3CCOCC3)c(=O)c2c1`: the half-maximal activity concentration (AC50) under setting [1] was 0.891 µM [rising, full curve, poor fit].
With `O=C(CCCCCCN1C(=O)c2ccccc2C1=O)N1CCC(c2ccccc2)C1` (stereo not given), the half-maximal activity concentration (AC50) under setting [2] is 32.6 µM [falling, partial curve, poor fit].
As for `Cc1ccc(NC(=O)CSc2ncccc2C(=O)Oc2cccc([N+](=O)[O-])c2)cc1Cl`, the AC50 under setting [1] is 0.651 µM [falling, full curve, poor fit].
Regarding `C=CCNC(=O)COCc1cc(-c2ccc3c(c2)OCO3)on1`, under setting [1], the AC50 is 15.8 µM [rising, single point].

The record behind these values is PubChem BioAssay AID493014 (National Center for Advancing Translational Sciences (NCATS), 2011).
